# Positions count from the first letter of the chain named. Some of the results follow. For some assays here: At the low end of the ranking, values are background and their order means little.
# Legend:
# Settings in all cases: yeast three-hybrid, YBZ-1, SC-Leu-His + 0.5 mM 3-AT, 4 days
# [1] = biological target: T1, PUM1 PUF domain R6-AYE N1043A + Q1047E (UniProt Q14671)
# T1 sequence: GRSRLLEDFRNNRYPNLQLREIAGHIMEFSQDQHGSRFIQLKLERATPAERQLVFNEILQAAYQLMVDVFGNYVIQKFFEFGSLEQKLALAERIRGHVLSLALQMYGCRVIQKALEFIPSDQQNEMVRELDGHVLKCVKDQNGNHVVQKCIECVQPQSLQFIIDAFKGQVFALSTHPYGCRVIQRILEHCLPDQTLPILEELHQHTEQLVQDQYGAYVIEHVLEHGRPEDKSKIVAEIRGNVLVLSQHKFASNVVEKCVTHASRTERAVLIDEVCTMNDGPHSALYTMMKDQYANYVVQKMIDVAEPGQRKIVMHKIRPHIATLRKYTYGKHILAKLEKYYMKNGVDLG
# [2] = biological target: T2, PUM1 PUF domain R6-CYE N1043C + Q1047E (UniProt Q14671)
# T2 sequence: T1 sequence with A216C
# [3] = biological target: T3, PUM1 PUF domain R6-NWP Y1044W + Q1047P (UniProt Q14671)
# T3 sequence: T1 sequence with A216N, Y217W, E220P
# [4] = biological target: T4, PUM1 PUF domain R6-RYA N1043R + Q1047A (Homo sapiens) (UniProt Q14671)
# T4 sequence: T1 sequence with A216R, E220A
# [5] = biological target: T5, PUM1 PUF domain R6-SWC N1043S + Y1044W + Q1047C (UniProt Q14671)
# T5 sequence: T1 sequence with A216S, Y217W, E220C
# [6] = biological target: T6, PUM1 PUF domain R6-SWD N1043S + Y1044W + Q1047D (UniProt Q14671)
# T6 sequence: T1 sequence with A216S, Y217W, E220D
# [7] = biological target: T7, PUM1 PUF domain R6-SWQ N1043S + Y1044W (UniProt Q14671)
# T7 sequence: T1 sequence with A216S, Y217W, E220Q
# [8] = biological target: T8, PUM1 PUF domain R6-SYM N1043S + Q1047M (UniProt Q14671)
# T8 sequence: T1 sequence with A216S, E220M
# [9] = biological target: T9, PUM1 PUF domain R6-TFD N1043T + Y1044F + Q1047D (UniProt Q14671)
# T9 sequence: T1 sequence with A216T, Y217F, E220D
# [10] = biological target: T10, PUM1 PUF domain R6-THR N1043T + Y1044H + Q1047R (Homo sapiens) (UniProt Q14671)
# T10 sequence: T1 sequence with A216T, Y217H, E220R
# [11] = biological target: T11, PUM1 PUF domain R6-VFV N1043V + Y1044F + Q1047V (UniProt Q14671)
# T11 sequence: T1 sequence with A216V, Y217F, E220V
# [12] = biological target: T12, PUM1 PUF domain R6-VWG N1043V + Y1044W + Q1047G (UniProt Q14671)
# T12 sequence: T1 sequence with A216V, Y217W, E220G
# [13] = biological target: T13, PUM1 PUF domain R6-VWK N1043V + Y1044W + Q1047K (UniProt Q14671)
# T13 sequence: T1 sequence with A216V, Y217W, E220K
# [14] = biological target: T14, PUM1 PUF domain R6-VWM N1043V + Y1044W + Q1047M (UniProt Q14671)
# T14 sequence: T1 sequence with A216V, Y217W, E220M
# [15] = biological target: T15, PUM1 PUF domain R6-VWR N1043V + Y1044W + Q1047R (Homo sapiens) (UniProt Q14671)
# T15 sequence: T1 sequence with A216V, Y217W, E220R
# [16] = biological target: T16, PUM1 PUF domain R6-VWY N1043V + Y1044W + Q1047Y (UniProt Q14671)
# T16 sequence: T1 sequence with A216V, Y217W, E220Y
# [17] = biological target: T17, PUM1 PUF domain R6-VYC N1043V + Q1047C (UniProt Q14671)
# T17 sequence: T1 sequence with A216V, E220C
# [18] = biological target: T18, PUM1 PUF domain R6-VYE N1043V + Q1047E (UniProt Q14671)
# T18 sequence: T1 sequence with A216V
# [19] = biological target: T19, PUM1 PUF domain R6-VYN N1043V + Q1047N (UniProt Q14671)
# T19 sequence: T1 sequence with A216V, E220N
# [20] = biological target: T20, PUM1 PUF domain R6-VYQ N1043V (UniProt Q14671)
# T20 sequence: T1 sequence with A216V, E220Q
sequence,measurement,setting,value
GGCUAGAACUAGUGGAUCCCCCGGCGCCCGGCGGCUCGAGCCCGGGUAAGUGCAAAUAGUCUGCAUGCCGCCGGGCGCCAUGCCUGCAGGUCGACUCUAGAAAACAUG,binding signal (log2 enrichment (interaction score)),[1],-5.37
same,binding signal (log2 enrichment (interaction score)),[2],-5.44
same,binding signal (log2 enrichment (interaction score)),[3],-3.9
same,binding signal (log2 enrichment (interaction score)),[4],-0.44
same,binding signal (log2 enrichment (interaction score)),[5],< -6.3
same,binding signal (log2 enrichment (interaction score)),[6],-5.06
same,binding signal (log2 enrichment (interaction score)),[7],-5.45
same,binding signal (log2 enrichment (interaction score)),[8],< -6.9
same,binding signal (log2 enrichment (interaction score)),[9],-5.88
same,binding signal (log2 enrichment (interaction score)),[10],0.31
same,binding signal (log2 enrichment (interaction score)),[11],< -8.45
same,binding signal (log2 enrichment (interaction score)),[12],< -8.14
same,binding signal (log2 enrichment (interaction score)),[13],< -6.01
same,binding signal (log2 enrichment (interaction score)),[14],< -6.83
same,binding signal (log2 enrichment (interaction score)),[15],-0.92
same,binding signal (log2 enrichment (interaction score)),[16],< -6.66
same,binding signal (log2 enrichment (interaction score)),[17],< -6.73
same,binding signal (log2 enrichment (interaction score)),[18],< -6.27
same,binding signal (log2 enrichment (interaction score)),[19],< -6.01
same,binding signal (log2 enrichment (interaction score)),[20],< -6.7

# Two consecutive entries already listed, quoted:
sequence,measurement,setting,value
GGCUAGAACUAGUGGAUCCCCCGGCGCCCGGCGGCUCGAGCCCGGGUAAGUGCAAAUAGUCUGCAUGCCGCCGGGCGCCAUGCCUGCAGGUCGACUCUAGAAAACAUG,binding signal (log2 enrichment (interaction score)),[18],< -6.27
same,binding signal (log2 enrichment (interaction score)),[19],< -6.01
